{
  "sequences": {"note": "By UniProt entry, the sequences of proteins in these tests, tags left out. Residues count along the entry.", "UniProt P51677": "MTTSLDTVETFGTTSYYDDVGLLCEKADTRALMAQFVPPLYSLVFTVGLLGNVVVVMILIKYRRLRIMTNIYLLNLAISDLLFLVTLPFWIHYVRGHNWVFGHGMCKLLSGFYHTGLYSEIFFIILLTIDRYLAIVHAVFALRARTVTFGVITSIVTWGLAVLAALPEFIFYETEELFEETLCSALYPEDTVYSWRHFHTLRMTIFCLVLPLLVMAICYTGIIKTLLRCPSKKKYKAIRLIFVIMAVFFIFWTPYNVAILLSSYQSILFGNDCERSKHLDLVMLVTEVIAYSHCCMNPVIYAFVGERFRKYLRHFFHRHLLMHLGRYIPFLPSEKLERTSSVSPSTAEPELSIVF", "UniProt P51671, residues 24-97": "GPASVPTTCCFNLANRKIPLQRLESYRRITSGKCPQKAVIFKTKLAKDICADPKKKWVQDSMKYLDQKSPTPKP"},
  "source": "paper PMC3741163",
  "biological_target": "CCR3 (UniProt P51677)",
  "assay": "radioligand binding; equilibrium competition on L1.2/CCR3 transfectants, tracer 0.1 nM 125I-CCL11, 0.1 x10^6 cells/well, competitor 10^-6 to 10^-12 M, room temperature 4 h, filtration; only the binder purified",
  "note": "No constants are given. Whether binding was seen depends on the method and setting. Some entries that bind do so weakly or less than the wild type.",
  "data": [
    {"substance": "^125I-CCL11 (from UniProt P51671 24-97) (ligand)", "values": [
      {"measurement": "binding", "value": "binds"}
    ]}
  ]
}
